This is one part of the list.
system: T1, CTL2-GFP (C. trachomatis L2/434/Bu, GFP-expressing); parameters: species or system HeLa; Intracellular C. trachomatis growth in HeLa cells, bulk GFP fluorescence relative to DMSO; conditions: bulk GFP, single well; 28.5 h, 10 µM; inhibitor
T1 construct: L2/434/Bu, GFP-expressing

Row | Structure (SMILES) | % of control remaining [%]
1 | CN(C(=O)c1c[nH]nc1-c1ccc(CNC(=O)c2cccc(Cl)c2)cc1)c1ccccc1 [CBK285597] | 117.44
2 | O=C(c1cnc[nH]1)N1CCn2nc(C(O)Cc3ccccc3)cc2C1 (stereo not shown) [CBK307558] | 114.977
3 | COc1ccc(C(C)C)cc1-c1cncc(N[C@@H](CO)C(C)C)n1 [CBK065356] | 151.843
4 | Cc1ccccc1Cn1c(CN2CCN(c3ccccc3)CC2)nc2c1c(=O)n(C)c(=O)n2C [CBK269488] | 156.435
5 | CCN(CC)c1c(C)nc2ccc(C(=O)NC3CCN(C)CC3)cn12 [CBK145965] | 103.953
6 | O=C(Nc1nn(Cc2c(F)cccc2Cl)cc1Cl)c1cccnc1 [CBK268154] | 102.021
7 | O=C(O)c1cccc(-c2nccnc2NCC2CC2)c1 [CBK038043] | 116.778
8 | Cc1ccc(-c2c[nH]c([C@@H]3COCCN3Cc3csnn3)n2)cc1 [CBK289302] | 127.993
9 | O=C(Nc1ccccc1)c1cccc(S(=O)(=O)NCc2cccs2)c1 [CBK058153] | 145.827
10 | O=C(Cc1ccsc1)N1CCCC2(CCN(Cc3ccccc3)C2)C1 (stereo not shown) [CBK136868] | 126.016
11 | O=C(Cn1ncn2nc(-c3ccccc3)cc2c1=O)Nc1ccc(F)cc1 [CBK287759] | 123.076
12 | CC(C)(C)C(=O)N1CCN(Cc2ccc3c(c2)OCO3)CC1 [CBK074842] | 109.241
13 | CCc1ccc2c(c1)C(CCNC(=O)c1cscc1C(F)(F)F)C(=O)N2 (stereo not shown) [CBK304728] | 124.328
14 | O=C(Cn1cc(-c2ccc(CN3CCCCC3)cc2)nn1)NCc1ccc(OC(F)F)cc1 [CBK167514] | 137.636
15 | Cc1cc(C(=O)N2CCC(Cc3ccccc3)CC2)n[nH]1 [CBK200187] | 104.26
16 | CCC(CN1CCOCC1)NC(=O)Cc1ccc2c(c1)CCC2 (stereo not shown) [CBK282810] | 98.31
17 | CC(C)(C)OC(=O)N1CCN(CCn2cc(C(=O)O)nn2)CC1 [CBK287112] | 117.826
18 | CC(=O)Nc1cccc(-c2cncc(NC3CCC(O)CC3)n2)c1 (stereo not shown) [CBK065404] | 141.977
19 | Cc1cc(I)ccc1S(=O)(=O)NCc1ccccn1 [CBK262155] | 92.8964
20 | Cc1cc(NC(=O)CS(=O)(=O)Cc2cccc(C(F)(F)F)c2)no1 [CBK304520] | 102.794
21 | O=C(c1cc(-c2cccnc2)[nH]n1)N1CCC(c2ccccc2)C1 (stereo not shown) [CBK281849] | 138.866
22 | COCCN1C(=O)C2(CC(=O)N(CC(=O)C(C)(C)C)C2=O)c2ccccc21 (stereo not shown) [CBK075324] | 56.7091
23 | O=C(NCCOc1ccccc1)c1nccnc1-c1ccc(COc2ccc3c(c2)CCCC3)cc1 [CBK050852] | 197.378
24 | O=C(c1cscn1)N1CCc2ccccc2C1 [CBK200342] | 102.04
25 | COc1ccc(NC(=O)CN2CCN(S(=O)(=O)N(C)C)CC2)cc1 [CBK267465] | 105.159
26 | COc1ccc(C(=O)NC(c2ccc(OC)c(OC)c2)c2cc(Cl)c3cccnc3c2O)cc1 (stereo not shown) [CBK263992] | 111.348
27 | Cc1ccc(-c2noc(CNC(=O)CSc3ccccc3)n2)cc1 [CBK270199] | 147.067

Row | Structure (SMILES) | % of control remaining [%]
28 | CCOC(=O)CSc1nnc(-c2ccc(Cl)cc2)o1 [CBK068845] | 101.376
29 | N#CCCn1cc(C(=O)N2CCCCC2)c(-c2cccc(Br)c2)n1 [CBK306202] | 166.999
30 | NNC(=O)CNS(=O)(=O)c1ccccc1 [CBK261967] | 134.498
31 | CN(C)CCNC(=O)c1ccc(-c2cnc3[nH]c(=O)n(C4CCCC4)c3n2)cc1 [CBK064957] | 107.758
32 | COc1cccc(CN(Cc2ccco2)Cc2[nH]cnc2C)c1 [CBK282495] | 126.759
33 | OCCNC(=S)Nc1ccc(Cl)cc1Cl [CBK265330] | 123.644
34 | O=C(c1ccccc1F)N1C[C@H](c2ccsc2)[C@H]2CN(Cc3cccs3)CC[C@H]21 [CBK285657] | 99.6438
35 | O=C(O)CNC(=O)[C@H]1CC[C@H](Cn2cnc3ccccc3c2=O)CC1 [CBK286714] | 124.182
36 | COc1ccc2nc(Nc3nc(C)c(C(C)=O)s3)sc2c1 [CBK287483] | 159.865
37 | CCCOc1ccc(C(=O)C(CN(CC)CC)Oc2ccccc2)cc1 (stereo not shown) [CBK011944C] | 91.1722
38 | Cc1cnn(CC2CCCCN2CC(=O)NCc2ccccn2)c1 (stereo not shown) [CBK304041] | 98.7572
39 | CC1CCN(S(=O)(=O)N2CCNCC2)CC1 [CBK269836C] | 123.422
40 | Cc1cc(C)n(C2CCN(Cc3c(C)nc4c(C)cccn34)CC2)n1 [CBK281617] | 74.4169
41 | CC1CC1C(=O)NCC(=O)N1CCN(S(=O)(=O)c2ccccc2[N+](=O)[O-])CC1 (stereo not shown) [CBK296747] | 145.496
42 | O=C(NC(C(=O)N/N=C/c1ccc(Cl)cc1Cl)c1n[nH]c(=O)c2ccccc12)c1ccccc1 (stereo not shown) [CBK261118] | 117.908
43 | COCCNc1nc(-c2ccccc2)ccc1C(=O)N(C)CCN(C)C [CBK105913] | 149.687
44 | Cc1ccc2nc(N3CCCC(O)C3)c(CN3CCSCC3)cc2c1 (stereo not shown) [CBK307000] | 147.229
45 | O=C(O)C1C2CCC(O2)C1C(=O)NCc1ccco1 (stereo not shown) [CBK263675] | 116.334
46 | C#Cc1cn([C@H]2C[C@@H](O)[C@@H](CO)O2)c(=O)[nH]c1=O [CBK201207] | 112.531
47 | CCCn1c(SCC(=O)N(C)Cc2ccc(OCC)cc2)n[nH]c1=O [CBK295132] | 176.833
48 | N#Cc1ccc(SCCOC(=O)c2cccs2)c([N+](=O)[O-])c1 [CBK066853] | 128.286
49 | Cc1cnc(CNS(=O)(=O)c2ccc(C(C)C)cc2)cn1 [CBK044615] | 100.039
50 | CS(=O)(=O)c1ccc(-c2ccc3c(c2)COC(C2CCN(C(=O)OCc4ccccc4)CC2)O3)cc1 (stereo not shown) [CBK144643] | 102.881
51 | Cc1[nH]c2c(C(=O)NCCCC3CCOC3)cccc2c1C (stereo not shown) [CBK282551] | 95.871
52 | CS(=O)(=O)c1ccc(-c2c[nH]c([C@@H]3COCCN3C3CCCCC3)n2)cc1 [CBK289299] | 113.561
53 | OCCN1CCN(c2nccc(C(F)(F)F)n2)CC1 [CBK028754] | 116.399
54 | Fc1ccc(-c2ccc(CNCCCN3CCOCC3)o2)cc1 [CBK278199C] | 147.127

Row | Structure (SMILES) | % of control remaining [%]
55 | CC1(C)CC(NS(=O)(=O)c2ccc(Br)cc2)CC(C)(C)N1 [CBK266805] | 168.188
56 | CS(=O)(=O)Nc1nn(-c2ccc(NC(=O)c3ccno3)cc2)c2ccccc12 [CBK048591] | 78.7287
57 | O=C(c1ccccc1)N1CCN(c2ccc(-n3cccn3)nn2)CC1 [CBK287662] | 151.423
58 | CC(Oc1cccc(Cl)c1)C(=O)N/N=C/c1cccc(Oc2ccccc2)c1 (stereo not shown) [CBK262113] | 100
59 | COc1cccc(C(=O)N2CCC(NC(=O)c3ccccc3C(F)(F)F)CC2)c1 [CBK155024] | 136.024
60 | Cc1[nH]c(=O)[nH]c(=O)c1CC(=O)N1Cc2cc(Cl)ccc2OC2(CCOCC2)C1 [CBK286341] | 138.311
61 | COc1c[nH]c(C(=O)NC(CCn2ccnc2)c2ccccc2)cc1=O (stereo not shown) [CBK306743] | 122.713
62 | FC(F)(F)c1ccc(Sc2cccc3ccccc23)nc1 [CBK089553] | 94.6651
63 | O=C(CCS(=O)(=O)c1ccccc1)Nc1cc2ccccc2c(N2CCNCC2)n1 [CBK028419T] | 106.017
64 | CN(C)CCN1CCN(c2nc(-c3cccc4ccccc34)cnc2N)CC1 [CBK063479] | 136.777
65 | Cc1noc(C)c1C(=O)NC(Cc1ccsc1)c1cccnc1 (stereo not shown) [CBK285100] | 135.414
66 | CC(C)C(=O)N1N=C2CCCCC2C1(O)C(F)(F)F (stereo not shown) [CBK028091] | 143.577
67 | CC(Cc1cccs1)NC(=O)C(C)n1ccnc1 (stereo not shown) [CBK282050] | 96.7993
68 | Cc1ccc(Cc2cnc(NC(=O)c3ccoc3C)s2)cc1C [CBK298277] | 123.688
69 | COc1ccc(OC)c(NS(=O)(=O)c2ccccc2)c1 [CBK099989] | 88.4478
70 | CC(C)CN1CC2(CCN(C(=O)OCc3ccccc3)CC2)c2ccccc21 [CBK022626C] | 124.767
71 | Cn1cc(C2CCCN2C(=O)c2cccc(C#N)c2)cn1 (stereo not shown) [CBK304849] | 127.751
72 | CC(C)COC(=O)n1ccc(C(=O)N2CCCCC2)n1 [CBK058828] | 131.969
73 | O=C(C1=C(O)C(=O)N(CCN2CCOCC2)C1c1ccccn1)c1cc2ccccc2o1 (stereo not shown) [CBK269576] | 117.407
74 | O=S(=O)(c1ccccc1)N(CC(O)CN1CCCC1)c1cccc2ccccc12 (stereo not shown) [CBK264464C] | 100
75 | Cn1nc(C(F)(F)F)c(C#N)c1Oc1ccc(C(C)(C)C)cc1 [CBK007398] | 136.286
76 | Cc1cc(CNC(=O)CCn2ccc(C)n2)on1 [CBK281485] | 94.1853
77 | COc1ccccc1[C@@H]1C[C@H](OC(=O)c2ccc(F)cc2)C(=O)N1C [CBK283598] | 155.176
78 | CC(C)c1nc2c(c(=O)c3ccccc3n2C)c(=O)n1-c1ccccc1 [CBK287947] | 150.891
79 | O=C(NCc1ccc(F)cc1)N(Cc1cccc(Cl)c1)CC1CCNCC1 [CBK119479] | 105.378

20 entries from above, tab-delimited.
Row	Structure (SMILES)	% of control remaining [%]
55	CC1(C)CC(NS(=O)(=O)c2ccc(Br)cc2)CC(C)(C)N1 [CBK266805]	168.188
56	CS(=O)(=O)Nc1nn(-c2ccc(NC(=O)c3ccno3)cc2)c2ccccc12 [CBK048591]	78.7287
57	O=C(c1ccccc1)N1CCN(c2ccc(-n3cccn3)nn2)CC1 [CBK287662]	151.423
58	CC(Oc1cccc(Cl)c1)C(=O)N/N=C/c1cccc(Oc2ccccc2)c1 (stereo not shown) [CBK262113]	100
59	COc1cccc(C(=O)N2CCC(NC(=O)c3ccccc3C(F)(F)F)CC2)c1 [CBK155024]	136.024
60	Cc1[nH]c(=O)[nH]c(=O)c1CC(=O)N1Cc2cc(Cl)ccc2OC2(CCOCC2)C1 [CBK286341]	138.311
61	COc1c[nH]c(C(=O)NC(CCn2ccnc2)c2ccccc2)cc1=O (stereo not shown) [CBK306743]	122.713
62	FC(F)(F)c1ccc(Sc2cccc3ccccc23)nc1 [CBK089553]	94.6651
63	O=C(CCS(=O)(=O)c1ccccc1)Nc1cc2ccccc2c(N2CCNCC2)n1 [CBK028419T]	106.017
64	CN(C)CCN1CCN(c2nc(-c3cccc4ccccc34)cnc2N)CC1 [CBK063479]	136.777
65	Cc1noc(C)c1C(=O)NC(Cc1ccsc1)c1cccnc1 (stereo not shown) [CBK285100]	135.414
66	CC(C)C(=O)N1N=C2CCCCC2C1(O)C(F)(F)F (stereo not shown) [CBK028091]	143.577
67	CC(Cc1cccs1)NC(=O)C(C)n1ccnc1 (stereo not shown) [CBK282050]	96.7993
68	Cc1ccc(Cc2cnc(NC(=O)c3ccoc3C)s2)cc1C [CBK298277]	123.688
69	COc1ccc(OC)c(NS(=O)(=O)c2ccccc2)c1 [CBK099989]	88.4478
70	CC(C)CN1CC2(CCN(C(=O)OCc3ccccc3)CC2)c2ccccc21 [CBK022626C]	124.767
71	Cn1cc(C2CCCN2C(=O)c2cccc(C#N)c2)cn1 (stereo not shown) [CBK304849]	127.751
72	CC(C)COC(=O)n1ccc(C(=O)N2CCCCC2)n1 [CBK058828]	131.969
73	O=C(C1=C(O)C(=O)N(CCN2CCOCC2)C1c1ccccn1)c1cc2ccccc2o1 (stereo not shown) [CBK269576]	117.407
74	O=S(=O)(c1ccccc1)N(CC(O)CN1CCCC1)c1cccc2ccccc12 (stereo not shown) [CBK264464C]	100
